Assay results reported in PMC5412445, “ZeGlobalTox: An Innovative Approach to Address Organ Drug Toxicity Using Zebrafish” (International Journal of Molecular Sciences, 2017).

How the values were obtained:
humans = settings: known toxicity in humans, ref TOXNET (HSDB), Side effects (EMBL), drugs.com, cited from earlier work
zebrafish larvae liver = assay: ZeGlobalTox hepatotoxicity: Oil Red O staining (steatosis and yolk lipid accumulation); settings: 132 hpf, 36 h drug incubation at NOEC (paracetamol 2600 µM), DMSO 22.22%
zebrafish larvae heart = assay: ZeGlobalTox cardiotoxicity evaluation (heart video, ZeCardio software); format: in vivo, zebrafish (Danio rerio); settings: 100 hpf, 4 h after drug incubation at NOEC (haloperidol 10 µM)
Procedure: Four cardiac parameters were evaluated to assess whether a compound was cardiotoxic: heart rate (beats per minute, BPM), QTc prolongation, ejection fraction (EJF), and cardiac arrest. […] 1% DMSO was used as the negative control.
Cardiotoxicity evaluation was performed from 96 hpf, when the zebrafish heartbeat is already stabilised, so the analysis might not be altered by unstable beating. Zebrafish hearts were video-recorded at 4 h after drug incubation (100 hpf) and analysed using the ZeCardio® β software (Figure 3A).
After 4 h of drug incubation (100 hpf), zebrafish larvae were anesthetized by immersion in […] tricaine methanesulfonate (A4050, Sigma-Aldrich, Saint Louis, MO, USA)/E3 solution. […] Embryos were positioned in an agarose based mold to allow their appropriate orientation under the fluorescence stereo microscope (Olympus MVX10). Individual fluorescent hearts were recorded during 60 s each (Figure 6A). Videos were acquired with a high-speed recording camera (Hamamatsu C11440 ORCA-flash 2.8) and analysed with the ZeCardio® β software to extract different cardiac parameters—heart rate, cardiac arrest, QTc prolongation, and Ejection Fraction (EJF) (Figure 6B). […]
Heart beat frequency for each chamber is detected and frequencies are presented in the GUI as a mean. […] In the same fashion, chamber specific cardiac arrest is measured as the longest beating pause (Figure 6H). […]

## O=C(O)c1cn(C2CC2)c2cc(N3CCNCC3)c(F)cc2c1=O [Ciprofloxacin, ciprofloxacin]
humans; [22],[30],[31],[34],[35]
  Neurotoxicity (toxicity in humans): Toxic ^1,2,3
humans; ema.europa, [19],[20],[21]
  Cardiotoxicity (toxicity in humans): Toxic ^1,2,3
humans; ema.europa, [24],[26],[27],[32],[33]
  Hepatotoxicity (toxicity in humans): Toxic ^1,2,3
Zebrafish larvae liver
  Percentage of larvae presenting yolk lipid retention: 65%
Zebrafish larvae heart
  QTc interval compared to DMSO-only: shorter QTc interval
